In patent publication US10563220B2, “Compositions and methods for efficient targeting of transgenes” (priority 2015, dated 2020):

What was measured:
[1] = tested on: R1 transgenic soybean plants; assay: R1 soybean leaf DMO ELISA; settings: single-copy dicamba tolerant R1 soybean, CTP linked to DMO SEQ ID NO:18
[2] = tested on: R1 transgenic soybean plants; assay: Amino-terminal sequencing of DMO from R1 soybean leaf; settings: DMO = full processing of the CTP

| Molecule | Leaf DMO levels [1] [ng/mg] | APG6-DMO processing [2] |
| --- | --- | --- |
| APG6: Arabidopsis thaliana albino and pale green (APG6) chloroplast transit peptide, SEQ ID NO:1, tested linked to DMO or PPO (protein, listed as Arabidopsis thalinana) MATATTTATAAFSGVVSVGTETRRIYSFSHLQPSAAFPAKPSSFKSLKLKQSARLTRRLDHRPFVVRC | 13.35 ± 2.7 | DMO |
| Optimized APG6: amino-terminal optimized variant of the APG6 CTP, SEQ ID NO:2 (protein) MASSTTTATAAFSGVVSVGTETRRIYSFSHLQPSAAFPAKPSSFKSLKLKQSARLTRRLDHRPFVVRC | 18.55 ± 3.1 | DMO |
